{
  "source": "patent US20040058857A1",
  "about": "“Method of treating cancer” (priority 2003, published 2004)",
  "test_system": "advanced hormone refractory prostate cancer",
  "experiment": "Clinical trial of Compound B with or without prednisone: PSA response",
  "type": "in vivo, human",
  "key": {"[1]": {"conditions": "chemotherapy naive patients, 225 mg/m^2 and 315 mg/m^2 without prednisone"}, "[2]": {"conditions": "chemotherapy naive patients, Compound B plus prednisone"}},
  "note": "At least one structure is not confirmed: it was looked up by name or label, or the drawing left a doubt. Numbered stars: 1 amine (or outer) side, 2 acyl side, 3 side chain; on linkers, the order of the positions; unused ones are H or OH. Square brackets hold non-standard residues; d marks the D form. Peptide text beside a SMILES is read from it. * marks the point of attachment. X1 = COc1cccc2c1C(=O)c1c(O)c3c(c(O)c1C2=O)C[C@@](O)(C(=O)CO)C[C@@H]3OC1CC(N*)C(O)C(C)O1; Glutaryl = O=C(CCCC(=O)[*:2])[*:1]; Hyp = O=C(O)[C@@H]1C[C@@H](O)CN1; Chg = N[C@H](C(=O)O)C1CCCCC1",
  "data": [
    {"smiles": "COc1cccc2c1C(=O)c1c(O)c3c(c(O)c1C2=O)C[C@@](O)(C(=O)CO)C[C@@H]3OC1CC(NC(=O)[C@H](CC(C)C)NC(=O)[C@H](CO)NC(=O)[C@H](CCC(N)=O)NC(=O)[C@@H](NC(=O)[C@H](CO)NC(=O)[C@H](C)NC(=O)[C@@H]2C[C@@H](O)CN2C(=O)CCCC(=O)O)C2CCCCC2)C(O)C(C)O1", "note": "(stereo partly drawn) [Compound B, [N-Glutaryl-(4-trans-L-Hyp)]-Ala-Ser-Chg-Gln-Ser-Leu-Dox] (Glutaryl-[Hyp]AS[Chg]QSL-X1; N-terminus and C-terminus assumed)", "values": [
      {"measurement": "patients with >75% decrease in PSA (to <4 ng/mL)", "setting": "[1]", "result": "2/6"},
      {"measurement": "patients with stabilized PSA", "setting": "[1]", "result": 1, "unit": "patient"},
      {"measurement": "patients with >50% decrease in PSA", "setting": "[2]", "result": "4/11"},
      {"measurement": "patients with stabilized PSA", "setting": "[2]", "result": "1/11"},
      {"measurement": "patients with >50% decrease in PSA", "setting": "patients previously treated with chemotherapy", "result": "1/3"},
      {"measurement": "activity in patients with Hormone Refractory Prostate Cancer (HRPC)", "setting": "with or without prednisone", "result": "active"}
    ]}
  ]
}
